Source: patent publication US20260232642A1, “RNA-BINDING MOLECULES WITH A SMALL CORE SCAFFOLD (R-SCORE) AND USES THEREOF” (Max-Planck-Gesellschaft zur Förderung der Wissenschaften …, priority 2022, published 2026)
At least one compound was matched to its structure with a doubt left.

How the values were obtained:
[1] = tested on: precursor microRNA-21 hairpin (pre-miR-21 hp); assay: Differential scanning fluorimetry (DSF), pre-miR-21 hairpin; format: binding; details: 60 uM compound, 1 μM hairpin in PBS, Tm of compound minus Tm of DMSO control
Procedure: (§1) To measure the binding between compounds and precursor microRNA-21 hairpin (pre-miR-21 hp) or precursor microRNA-17 hairpin (pre-miR-17 hp), DSF was performed as previously described with modification (ACS Chem. Biol. 2017, 12, 2, 435-443). Precursor microRNA hairpin was dissolved in PBS and annealed by briefly heating to 95° C. for 3 min and slowly cooling to rt. Assay was performed in duplicates using white qPCR 8-strips (VWR) with a total volume of 10 μL in PBS. The total reaction consisted of 1 μM precursor microRNA hairpin, 1% test compound (DMSO dilution) and 2×SYBR GreenII (Thermo Fisher Scientific). Compounds were incubated with precursor microRNA hairpin at for 10 min at rt, then SYBR GreenII was added to each well, mixed and incubated 10 min at rt. The strips were spined and loaded to the RT-PCR detection system (BIO-RAD CFX Connect), the fluorescence intensity was obtained every 1° C. for 30 s in the range of 20° C. to 80° C.
(§2) The melting temperature (Tm) was determined by the maximum of the negative of the first derivative of the fluorescence vs temperature melting curves. The ΔTm was calculated by the Tm value of compound subtract the Tm value of the DMSO control.

[2] = tested on: precursor microRNA-17 hairpin (pre-miR-17 hp); assay: Differential scanning fluorimetry (DSF), pre-miR-17 hairpin; format: binding; details: 60 uM compound, 1 μM hairpin in PBS, Tm of compound minus Tm of DMSO control
Procedure: as §1, §2

Cc1noc(C)c1-c1ccc(C2CN(C(=O)c3sc4ncccc4c3N)C2C#N)cc1 (centres unmarked) [Compound B3, 1-(3-aminothieno[2,3-b]pyridine-2-carbonyl)-3-(4-(3,5-dimethylisoxazol-4-yl)phenyl) azetidine-2-carbonitrile]
ΔTm (pre-miR-21 hp) @60 uM [° C.] [1]: 0 °C | ΔTm (pre-miR-17 hp) @60 uM [° C.] [2]: 0 °C
